Results are given in words; binding and its absence hold for the method and conditions named. In cells and extracts the contact can be indirect. Some binding calls cover weakened binding; strength is not graded here. Tags and fused reporters may be left off the sequences shown.

Protein sequences, listed by entry. Tags and fused reporters are not part of them.
UniProt P03129: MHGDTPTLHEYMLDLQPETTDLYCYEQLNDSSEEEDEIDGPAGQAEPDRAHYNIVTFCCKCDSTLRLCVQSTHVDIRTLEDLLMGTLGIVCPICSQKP

The target of test [1] is T1, cystatin E/M protein (wild type, human), expressed from plasmid p3XFLAG-CMV-10 in transfected HeLa cells (human) (UniProt Q15828).
T1 sequence: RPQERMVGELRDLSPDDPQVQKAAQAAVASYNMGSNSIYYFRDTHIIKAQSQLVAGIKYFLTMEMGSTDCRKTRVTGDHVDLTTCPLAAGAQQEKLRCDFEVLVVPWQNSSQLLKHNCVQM
Put plainly: co-immunoprecipitation from co-transfected HeLa cells, Western blot with cystatin E/M antibody.

For test [2], the target named is T1, cystatin E/M protein (wild type, human), expressed from plasmid p3XFLAG-CMV-10 in transfected HeLa cells (human). Put plainly: co-immunoprecipitation with anti-E7 antibody from co-transfected HeLa cell lysates, Western blot with cystatin E/M antibody.

Consider “HPV 16 E7 protein (from UniProt P03129 1-98)”, for which the binding entry in test [1] and in test [2] was “binds” throughout.

The values are drawn from patent US20110098242A1, “Methods and Compositions for Diagnosing and Treating Cervical Intraepithelial Neoplasia and Cervical Cancer” (priority 2008, published 2011).
